Results are given in words; binding and its absence hold for the method and conditions named. Binding seen in cells or lysates may run through a third protein. A yes stands for co-enrichment or nearness to the bait. Other partners may have been found.
Molecular target: T1, HORMAD1 (mouse (endogenous in testis)) (UniProt Q9D5T7)
T1 sequence: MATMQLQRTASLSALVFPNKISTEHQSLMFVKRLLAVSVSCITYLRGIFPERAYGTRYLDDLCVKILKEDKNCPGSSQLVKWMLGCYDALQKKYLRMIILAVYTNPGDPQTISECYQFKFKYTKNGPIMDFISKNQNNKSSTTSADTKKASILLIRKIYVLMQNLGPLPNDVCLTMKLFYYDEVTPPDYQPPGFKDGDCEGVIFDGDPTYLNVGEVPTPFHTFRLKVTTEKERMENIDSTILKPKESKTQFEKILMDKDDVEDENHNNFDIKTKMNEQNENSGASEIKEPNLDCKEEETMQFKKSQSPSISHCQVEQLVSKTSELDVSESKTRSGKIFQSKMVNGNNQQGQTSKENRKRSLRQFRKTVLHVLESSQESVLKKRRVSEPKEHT
Assay: affinity purification with mass spectrometry; IP with rabbit anti-HORMAD1 antibody cross-linked to protein A-Dynabeads from chromatin-bound extracts (400 mM KCl) of WT mouse testes enriched for preleptotene/leptotene spermatocytes (WIN 18,446 then RA); washed with high salt extraction buffer; LC-MS/MS; proteins of the control IgG IP subtracted

binding: binds
B1: PDS5A (protein, UniProt Q6A026 1-1332)
chain: MDFTQPKPATALCGVVSADGKIAYPPGVKEITDKITTDEMIKRLKMVVKTFMDMDQDSEDEKQQYLPLALHLASEFFLRNPNKDVRLLVACCLADIFRIYAPEAPYTSHDKLKDIFLFITRQLKGLEDTKSPQFNRYFYLLENLAWVKSYNICFELEDCNEIFIQLFRTLFSVINNSHNTKVQMHMLDLMSSIIMEGDGVTQELLDSILINLIPAHKNLNKQSFDLAKVLLKRTVQTIEACIANFFNQVLVLGRSSVSDLSEHVFDLIQELFAIDPQLLLSVMPQLEFKLKSNDGEERLAVVRLLAKLFGSKDSDLATQNRPLWQCFLGRFNDIHVPVRLESVKFASHCLMNHPDLAKDLTEYLKVRSHDPEEAIRHDVIVTIITAAKRDLALVNDQLLGFVRERTLDKRWRVRKEAMMGLAQLYKKYCLHGEAGKEAAEKVSWIKDKLLHIYYQNSIDDKLLVEKIFAQYLVPHNLETEERMKCLYYLYASLDPNAVKALNEMWKCQNMLRSHVRELLDLHKQPTSEANCSAMFGKLMTIAKNLPDPGKAQDFVKKFNQVLGDDEKLRSQLELLISPTCSCKQADVCVREIARKLANPKQPTNPFLEMVKFLLERIAPVHIDSEAISALVKLMNKSIEGTADDEEEGVSPDSAIRSGLELLKVLSFTHPTSFHSAETYESLLQCLRMEDDKVAEAAIQIFRNTGHKIETDLPQIRSTLIPILHQKAKRGTPHQAKQAVHCIHAIFSNKEVQLAQIFEPLSRSLNADVPEQLITPLVSLGHISMLAPDQFASPMKSVVANFIVKDLLMNDRSTGEKNGKLWSPDEEVSPEVLAKVYLLRLLVRWLLGMKNNQSKSANSTLRLLSAMLVSEGDLTEQKRISKSDMSRLRLAAGSAIMKLAQEPCYHEIITPEQFQLCALVINDECYQVRQIFAQKLHKALVKLLLPLEYMAIFALCAKDPVKERRAHARQCLLKNISIRREYIKQNPMATEKLLSLLPEYVVPYMIHLLAHDPDFTRSQDVDQLRDIKECLWFMLEVLMTKNENNSHAFMKKMAENIKLTRDAQSPDESKTNEKLYTVCDVALCVINSKSALCNADSPKDPVLPMKFFTQPEKDFCNDKSYISEETRVLLLTGKPKPTGVLGTVNKPLSATGRKPYVRSAGTETGSNINANSELSPSAGSRSREQSSEASETGVSENEENPVRIISVTPVKNIDTVKNKEINSDQSTQGNISSDRGKKRIVTAAGAENIQKPDEKVDESGPPAPSKPRRGRRPKSESQGNATKNDDLNKPVSKGRKRAAGSQESLEAGNAKAPKLQDGAKKAVPAERQIDLQR
